These are yes or no findings as the source states them, for the method shown. Some entries that bind do so weakly or less than the wild type.
How the values were obtained:
LptF (E. coli) [1] = molecular target: T1, LptF (E. coli) (UniProt P0AF98); test: DNP-enhanced solid-state NMR (13C-15N TEDOR); mixed-labelled 15N-LptC with 13C-LptB2FG in POPE/POPG liposomes, apo state, 100 K, 8 kHz MAS, mixing time 6.5 ms; both purified
T1 sequence: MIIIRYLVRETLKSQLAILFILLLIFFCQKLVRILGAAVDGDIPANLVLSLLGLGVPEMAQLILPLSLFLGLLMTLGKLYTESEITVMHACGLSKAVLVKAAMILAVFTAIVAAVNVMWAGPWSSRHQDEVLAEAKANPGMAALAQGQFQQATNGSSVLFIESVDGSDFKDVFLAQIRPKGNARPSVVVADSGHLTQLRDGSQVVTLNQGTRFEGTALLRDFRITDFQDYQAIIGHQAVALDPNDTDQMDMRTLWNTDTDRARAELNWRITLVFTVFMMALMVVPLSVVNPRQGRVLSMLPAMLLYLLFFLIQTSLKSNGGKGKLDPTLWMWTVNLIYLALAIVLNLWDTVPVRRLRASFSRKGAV

LptB2FG complex [2] = molecular target: T2, LptB2FG complex (E. coli, UniProt P0A9V1 1-241; P0AF98 1-366; P0ADC6 1-360); test: as above
T2 construct: LptF, transmembrane domain subunit of the lipopolysaccharide transporter, E. coli; LptG, transmembrane domain subunit of the lipopolysaccharide transporter, E. coli; Uniformly 13C-labelled for the TEDOR experiments; also called 13C-LptB2FG; ABC transporter LptB2FG; source: E. coli, co-expressed from pETDuet-1, membranes solubilised in DDM, purified (Ni-NTA); expression as previously described; …
T2 sequence (looked up) 1: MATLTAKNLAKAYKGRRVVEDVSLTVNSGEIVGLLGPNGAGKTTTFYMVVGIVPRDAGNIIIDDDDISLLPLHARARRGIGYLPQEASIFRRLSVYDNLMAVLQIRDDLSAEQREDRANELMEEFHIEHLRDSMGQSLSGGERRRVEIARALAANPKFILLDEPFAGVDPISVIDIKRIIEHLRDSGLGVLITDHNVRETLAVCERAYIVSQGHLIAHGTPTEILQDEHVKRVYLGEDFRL
T2 sequence (looked up) 2: T1 sequence
T2 sequence (looked up) 3: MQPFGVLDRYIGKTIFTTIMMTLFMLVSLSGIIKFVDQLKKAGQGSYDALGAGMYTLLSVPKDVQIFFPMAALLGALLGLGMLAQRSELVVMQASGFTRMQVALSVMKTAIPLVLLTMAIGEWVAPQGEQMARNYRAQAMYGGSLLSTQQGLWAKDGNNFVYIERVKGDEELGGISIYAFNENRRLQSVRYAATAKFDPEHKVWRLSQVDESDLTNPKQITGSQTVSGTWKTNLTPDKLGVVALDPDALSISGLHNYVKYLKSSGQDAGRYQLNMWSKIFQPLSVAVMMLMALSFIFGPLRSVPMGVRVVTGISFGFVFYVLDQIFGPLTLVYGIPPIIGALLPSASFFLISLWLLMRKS

LptB2FG complex [3] = molecular target: T2, LptB2FG complex; test: solid-state NMR (hNCA); 15N,13C-Lys-LptC co-reconstituted 1:1 mol:mol with LptB2FG in POPE/POPG liposomes, apo state, 14 kHz MAS, 850 MHz, 270 K; compared with LptC alone in liposomes; both purified
LptF (E. coli) [4] = molecular target: T1, LptF (E. coli); test: DNP-enhanced solid-state NMR (13C-15N TEDOR); mixed-labelled 15N-LptC with 13C-LptB2FG in POPE/POPG liposomes in the ADP-VO4-trapped, the LPS-bound and the combined ADP-VO4-trapped/LPS-bound state, 100 K, 8 kHz MAS, mixing time 6.5 ms; both purified
LptB2FG complex [5] = molecular target: T2, LptB2FG complex; test: as above
LptB2FG complex [6] = molecular target: T2, LptB2FG complex; test: native gel or EMSA; blue-native PAGE (with SDS-PAGE) of the assembled LptB2FGC complex (Figure S2A,C); both purified
[7] = molecular target: T3, LptB2FG complex (E. coli) (UniProt P0A9V1+P0AF98+P0ADC6); test: SEC; LptB2FG and LptC co-reconstituted into POPE/POPG liposomes, resolubilised in 0.5% DDM, Superdex 200 Increase 10/300 GL; compared with LptB2FG alone; both purified
T3 sequence 1: T2 sequence (looked up) 1
T3 sequence 2: T1 sequence
T3 sequence 3: T2 sequence (looked up) 3

- binding (LptF (E. coli) [1]): binds
- binding (LptB2FG complex [2]): binds
- binding (LptB2FG complex [3]): binds
- binding (LptF (E. coli) [4]): binds
- binding (LptB2FG complex [5]): binds
- binding (LptB2FG complex [6]): binds
- binding [7]: binds
B1: LptC, full length with its transmembrane helix (natural protein, E. coli, UniProt P0ADV9 1-191, looked up)
chain: MSKARRWVIIVLSLAVLVMIGINMAEKDDTAQVVVNNNDPTYKSEHTDTLVYNPEGALSYRLIAQHVEYYSDQAVSWFTQPVLTTFDKDKIPTWSVKADKAKLTNDRMLYLYGHVEVNALVPDSQLRRITTDNAQINLVTQDVTSEDLVTLYGTTFNSSGLKMRGNLRSKNAELIEKVRTSYEIQNKQTQP
notes: LptC, E. coli, full length including the transmembrane helix; Isotope labelled for NMR (13C,15N-lysine or uniform 15N); also called 15N-LptC; 15N,13C-Lys-LptC; source: E. coli BL21(DE3), pBAD33.1, membranes solubilised in LS detergent, purified (Ni-NTA)

From article PMC12498426, “Conformational Plasticity of LptC Regulates Lipopolysaccharide Transport by the LptB2FGC Complex” (Journal of the American Chemical Society, 2025)
